Assay results: paper PMC11078974
Results are given in words; binding and its absence hold for the method and conditions named. In cells and extracts the contact can be indirect. Some entries that bind do so weakly or less than the wild type. For some assays here: Where a sequence is shown, tags or fusion partners need not be part of it. One block for each molecule: values may come before it.

Protein sequences, listed by entry. Tags and fused reporters are not part of them. Lines headed by an entry give the natural chain unless they say otherwise; changes in a name come on top.
UniProt O00311: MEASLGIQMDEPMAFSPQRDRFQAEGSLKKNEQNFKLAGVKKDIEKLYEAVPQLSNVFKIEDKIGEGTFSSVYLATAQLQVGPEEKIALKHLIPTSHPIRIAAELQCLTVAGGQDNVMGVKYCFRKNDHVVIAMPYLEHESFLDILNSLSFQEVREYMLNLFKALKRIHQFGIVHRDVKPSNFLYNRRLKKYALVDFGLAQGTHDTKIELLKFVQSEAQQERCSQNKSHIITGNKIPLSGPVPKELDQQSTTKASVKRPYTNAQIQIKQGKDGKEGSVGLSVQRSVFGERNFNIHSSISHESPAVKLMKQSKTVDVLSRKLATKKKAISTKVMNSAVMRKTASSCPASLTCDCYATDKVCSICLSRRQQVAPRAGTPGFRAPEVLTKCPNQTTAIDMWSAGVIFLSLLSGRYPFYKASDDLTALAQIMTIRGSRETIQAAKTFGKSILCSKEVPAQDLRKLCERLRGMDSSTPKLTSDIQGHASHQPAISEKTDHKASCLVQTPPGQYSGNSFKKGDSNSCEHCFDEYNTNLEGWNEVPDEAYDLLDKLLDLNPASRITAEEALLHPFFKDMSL
UniProt Q9NS91: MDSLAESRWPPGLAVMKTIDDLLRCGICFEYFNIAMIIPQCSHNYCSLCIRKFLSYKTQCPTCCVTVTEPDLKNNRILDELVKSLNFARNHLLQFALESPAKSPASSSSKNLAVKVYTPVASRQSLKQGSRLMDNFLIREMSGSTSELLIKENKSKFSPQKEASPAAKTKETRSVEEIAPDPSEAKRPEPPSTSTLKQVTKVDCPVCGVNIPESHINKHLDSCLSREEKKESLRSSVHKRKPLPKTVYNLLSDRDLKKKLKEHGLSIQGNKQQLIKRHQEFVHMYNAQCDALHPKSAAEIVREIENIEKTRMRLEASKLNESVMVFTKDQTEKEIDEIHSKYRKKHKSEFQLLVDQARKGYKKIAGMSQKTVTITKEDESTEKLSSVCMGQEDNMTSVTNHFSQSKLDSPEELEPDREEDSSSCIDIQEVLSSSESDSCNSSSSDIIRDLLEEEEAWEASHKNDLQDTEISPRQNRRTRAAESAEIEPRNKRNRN
UniProt O60934: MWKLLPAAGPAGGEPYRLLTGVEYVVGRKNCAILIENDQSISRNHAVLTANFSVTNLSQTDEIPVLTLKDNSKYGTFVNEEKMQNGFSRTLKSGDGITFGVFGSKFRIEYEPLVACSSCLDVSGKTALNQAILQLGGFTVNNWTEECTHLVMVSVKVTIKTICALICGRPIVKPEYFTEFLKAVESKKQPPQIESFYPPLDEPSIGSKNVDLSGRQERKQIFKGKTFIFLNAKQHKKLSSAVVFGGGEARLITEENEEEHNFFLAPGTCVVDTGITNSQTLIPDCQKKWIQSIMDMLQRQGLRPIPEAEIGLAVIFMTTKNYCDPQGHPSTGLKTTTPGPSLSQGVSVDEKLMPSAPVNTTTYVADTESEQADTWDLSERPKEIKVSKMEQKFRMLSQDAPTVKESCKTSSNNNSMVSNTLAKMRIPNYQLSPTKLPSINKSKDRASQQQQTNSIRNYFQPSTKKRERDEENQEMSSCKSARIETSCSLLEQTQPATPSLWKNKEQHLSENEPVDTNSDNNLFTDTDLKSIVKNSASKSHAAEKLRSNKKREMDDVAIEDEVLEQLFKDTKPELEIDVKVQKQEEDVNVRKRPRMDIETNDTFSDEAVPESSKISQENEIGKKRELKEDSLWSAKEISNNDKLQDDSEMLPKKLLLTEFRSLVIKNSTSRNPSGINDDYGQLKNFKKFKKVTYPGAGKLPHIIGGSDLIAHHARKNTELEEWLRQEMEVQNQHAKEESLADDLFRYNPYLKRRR

Key:
[1] = target: HA-CDC7 (UniProt O00311); assay: co-IP; HEK293T cells transfected with WT or 3A SFB-RAD18 and HA-CDC7; lysates immunoprecipitated with anti-HA beads, blot with Flag and HA antibodies
[2] = target: T1, His-RAD51C (UniProt O43502); assay: pull-down; purified His-RAD51C on beads incubated with lysates of OGT knock-down HEK293T cells expressing SFB-RAD18, cells with glucose (60 mM) and TMG (5 uM) or not; HEPES buffer, 4 °C, 2 h; only the target purified
T1 sequence: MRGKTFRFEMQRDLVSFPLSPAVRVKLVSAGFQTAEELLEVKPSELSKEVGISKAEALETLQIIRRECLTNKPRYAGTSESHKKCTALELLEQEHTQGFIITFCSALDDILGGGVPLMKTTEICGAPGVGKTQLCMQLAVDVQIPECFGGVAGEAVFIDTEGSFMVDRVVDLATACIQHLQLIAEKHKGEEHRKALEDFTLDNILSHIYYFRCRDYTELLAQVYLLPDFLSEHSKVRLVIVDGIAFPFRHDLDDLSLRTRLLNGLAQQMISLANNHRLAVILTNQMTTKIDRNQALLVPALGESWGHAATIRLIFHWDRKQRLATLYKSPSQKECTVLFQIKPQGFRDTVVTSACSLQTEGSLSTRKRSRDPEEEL

[3] = target: His-RAD18 3A (S130A/S164A/T468A) (human) (UniProt Q9NS91); assay: pull-down; purified His-RAD18 on beads incubated with HEK293T cell lysates expressing HA-CDC7 in HEPES buffer (150 mM NaCl, 1% Triton X-100), 4 °C, 2 h; blot with HA antibody; only the target purified
[4] = target: SFB-RAD18 (WT) (human) (UniProt Q9NS91); assay: co-IP; Supplementary Fig. 3; in the presence or absence of UV treatment; constructs and bait not shown
[5] = target: SFB-RAD18 3A (S130A/S164A/T468A) (human) (UniProt Q9NS91); assay: as above
[6] = target: Flag-RAD18 (human) (UniProt Q9NS91); assay: co-IP; HEK293T cells co-transfected; whole cell lysates in HEPES buffer (50 mM HEPES pH 7.5, 150 mM NaCl, 1% Triton X-100); anti-Flag M2 agarose; with or without UV (15 J m^-2), OGT knock-down, glucose (60 mM) and TMG (5 uM)
[7] = target: SFB-RAD18 (WT) (human) (UniProt Q9NS91); assay: co-IP; chromatin (triton-insoluble) fraction of co-transfected HEK293T cells, anti-Flag M2 beads; glucose (60 mM) and TMG (5 uM); after UV (15 J m^-2); OGT knock-down in one panel
[8] = target: SFB-RAD18 3A (S130A/S164A/T468A) (human) (UniProt Q9NS91); assay: as above
[9] = target: SFB-RAD18 (WT) (human) (UniProt Q9NS91); assay: co-IP; HEK293T cells co-transfected; whole cell lysates in HEPES buffer (50 mM HEPES pH 7.5, 150 mM NaCl, 1% Triton X-100); anti-Flag M2 agarose; with or without UV (15 J m^-2), OGT knock-down, glucose (60 mM) and TMG (5 uM)
[10] = target: GFP-RAD18 (WT) (human) (UniProt Q9NS91); assay: co-IP; RAD18-depleted HEK293T cells transfected with WT or 3A GFP-RAD18 and SFB-RAD51C; immunoprecipitation with anti-GFP agarose, blot with Flag and GFP antibodies (the legend says that the lysates were denatured)
[11] = target: GFP-RAD18 3A (S130A/S164A/T468A) (human) (UniProt Q9NS91); assay: as above

Molecule: HA-CDC7 (from UniProt O00311 1-574) (enzyme)
binding [3]: binds

Molecule: Nijmegen breakage syndrome 1 (NBS1) (from UniProt O60934 1-754)
binding [4]: binds
binding [5]: binds

B1: SIVA1 apoptosis-inducing factor (protein, UniProt O15304 1-175)
chain: MPKRSCPFADVAPLQLKVRVSQRELSRGVCAERYSQEVFEKTKRLLFLGAQAYLDHVWDEGCAVVHLPESPKPGPTGAPRAARGQMLIGPDGRLIRSLGQASEADPSGVASIACSSCVRAVDGKAVCGQCERALCGQCVRTCWGCGSVACTLCGLVDCSDMYEKVLCTSCAMFET
binding [4]: binds
binding [5]: binds

B4: SFB-RAD51C (protein, UniProt O43502 1-376)
chain: T1 sequence
binding [10]: binds
binding [11]: binds weakly

Second part, the molecule after the results:

binding [1]: binds
Molecule: SFB-RAD18 3A (S130A/S164A/T468A) (from UniProt Q9NS91 1-495) (enzyme)

binding [1]: binds
binding [2]: binds
Molecule: SFB-RAD18 (WT) (from UniProt Q9NS91 1-495) (enzyme)

binding [6]: binds
B2: Myc-OGT (enzyme, UniProt O15294 1-1046)
chain: MASSVGNVADSTEPTKRMLSFQGLAELAHREYQAGDFEAAERHCMQLWRQEPDNTGVLLLLSSIHFQCRRLDRSAHFSTLAIKQNPLLAEAYSNLGNVYKERGQLQEAIEHYRHALRLKPDFIDGYINLAAALVAAGDMEGAVQAYVSALQYNPDLYCVRSDLGNLLKALGRLEEAKACYLKAIETQPNFAVAWSNLGCVFNAQGEIWLAIHHFEKAVTLDPNFLDAYINLGNVLKEARIFDRAVAAYLRALSLSPNHAVVHGNLACVYYEQGLIDLAIDTYRRAIELQPHFPDAYCNLANALKEKGSVAEAEDCYNTALRLCPTHADSLNNLANIKREQGNIEEAVRLYRKALEVFPEFAAAHSNLASVLQQQGKLQEALMHYKEAIRISPTFADAYSNMGNTLKEMQDVQGALQCYTRAIQINPAFADAHSNLASIHKDSGNIPEAIASYRTALKLKPDFPDAYCNLAHCLQIVCDWTDYDERMKKLVSIVADQLEKNRLPSVHPHHSMLYPLSHGFRKAIAERHGNLCLDKINVLHKPPYEHPKDLKLSDGRLRVGYVSSDFGNHPTSHLMQSIPGMHNPDKFEVFCYALSPDDGTNFRVKVMAEANHFIDLSQIPCNGKAADRIHQDGIHILVNMNGYTKGARNELFALRPAPIQAMWLGYPGTSGALFMDYIITDQETSPAEVAEQYSEKLAYMPHTFFIGDHANMFPHLKKKAVIDFKSNGHIYDNRIVLNGIDLKAFLDSLPDVKIVKMKCPDGGDNADSSNTALNMPVIPMNTIAEAVIEMINRGQIQITINGFSISNGLATTQINNKAATGEEVPRTIIVTTRSQYGLPEDAIVYCNFNQLYKIDPSTLQMWANILKRVPNSVLWLLRFPAVGEPNIQQYAQNMGLPQNRIIFSPVAPKEEHVRRGQLADVCLDTPLCNGHTTGMDVLWAGTPMVTMPGETLASRVAASQLTCLGCLELIAKNRQEYEDIAVKLGTDLEYLKKVRGKVWKQRISSPLFNTKQYTMELERLYLQMWEHYAAGNKPDHMIKPVEVTESA

binding [7]: binds
binding [8]: binds
binding [9]: binds
B3: GFP-Polη (enzyme, UniProt Q9Y253 1-713)
chain: MATGQDRVVALVDMDCFFVQVEQRQNPHLRNKPCAVVQYKSWKGGGIIAVSYEARAFGVTRSMWADDAKKLCPDLLLAQVRESRGKANLTKYREASVEVMEIMSRFAVIERASIDEAYVDLTSAVQERLQKLQGQPISADLLPSTYIEGLPQGPTTAEETVQKEGMRKQGLFQWLDSLQIDNLTSPDLQLTVGAVIVEEMRAAIERETGFQCSAGISHNKVLAKLACGLNKPNRQTLVSHGSVPQLFSQMPIRKIRSLGGKLGASVIEILGIEYMGELTQFTESQLQSHFGEKNGSWLYAMCRGIEHDPVKPRQLPKTIGCSKNFPGKTALATREQVQWWLLQLAQELEERLTKDRNDNDRVATQLVVSIRVQGDKRLSSLRRCCALTRYDAHKMSHDAFTVIKNCNTSGIQTEWSPPLTMLFLCATKFSASAPSSSTDITSFLSSDPSSLPKVPVTSSEAKTQGSGPAVTATKKATTSLESFFQKAAERQKVKEASLSSLTAPTQAPMSNSPSKPSLPFQTSQSTGTEPFFKQKSLLLKQKQLNNSSVSSPQQNPWSNCKALPNSLPTEYPGCVPVCEGVSKLEESSKATPAEMDLAHNSQSMHASSASKSVLEVTQKATPNPSLLAAEDQVPCEKCGSLVPVWDMPEHMDYHFALELQKSFLQPHSSNPQVVSAVSHQGKRNPKSPLACTNKRPRPEGMQTLESFFKPLTH
